## Cleaved PARP after 72 h of treatment

Source: doi:10.1371/journal.pone.0140310, primary screening data, rounded.

Every entry is a combination with SNS-314 at 4 nM: O=C(Nc1cccc(Cl)c1)Nc1ncc(CCNc2ncnc3ccsc23)s1

Compounds and concentrations:
perifosine: CCCCCCCCCCCCCCCCCCOP(=O)([O-])OC1CC[N+](C)(C)CC1 at 2000 nM
CX-4945: O=C(O)c1ccc2c(c1)nc(Nc1cccc(Cl)c1)c1ccncc12 at 2000 nM
CHIR-265: Cn1c(Nc2ccc(C(F)(F)F)cc2)nc2cc(Oc3ccnc(-c4ncc(C(F)(F)F)[nH]4)c3)ccc21 at 400 nM
GW441756: Cn1cc(/C=C2\C(=O)Nc3cccnc32)c2ccccc21 at 2000 nM
BI-D1870: CC(C)CCN1c2nc(Nc3cc(F)c(O)c(F)c3)ncc2N(C)C(=O)C1C (centres unmarked) at 1000 nM
ruxolitinib: N#CC[C@H](C1CCCC1)n1cc(-c2ncnc3[nH]ccc23)cn1 at 5000 nM
nilutamide: CC1(C)NC(=O)N(c2ccc([N+](=O)[O-])c(C(F)(F)F)c2)C1=O at 5000 nM
FH535: Cc1cc([N+](=O)[O-])ccc1NS(=O)(=O)c1cc(Cl)ccc1Cl at 5000 nM
everolimus: CO[C@H]1C[C@@H]2CC[C@@H](C)[C@@](O)(O2)C(=O)C(=O)N2CCCC[C@H]2C(=O)O[C@H]([C@H](C)C[C@@H]2CC[C@@H](OCCO)[C@H](OC)C2)CC(=O)[C@H](C)/C=C(\C)[C@@H](O)[C@@H](OC)C(=O)[C@H](C)C[C@H](C)/C=C/C=C/C=C/1C at 100 nM
dasatinib: Cc1nc(Nc2ncc(C(=O)Nc3c(C)cccc3Cl)s2)cc(N2CCN(CCO)CC2)n1 at 20 nM
NVP-BEZ235: Cn1c(=O)n(-c2ccc(C(C)(C)C#N)cc2)c2c3cc(-c4cnc5ccccc5c4)ccc3ncc21 at 20 nM
cisplatin: N.N.[Cl][Pt][Cl] at 8000 nM
Src-I1: COc1cc2ncnc(Nc3ccc(Oc4ccccc4)cc3)c2cc1OC at 10000 nM
RKI-983: C[C@@H](N)c1ccc(C(=O)Nc2ccnc3[nH]ccc23)cc1 at 2000 nM
YM155: COCC[n+]1c2c(n(Cc3cnccn3)c1C)C(=O)c1ccccc1C2=O at 2 nM
BI-78D3: O=c1[nH]nc(Sc2ncc([N+](=O)[O-])s2)n1-c1ccc2c(c1)OCCO2 at 1000 nM
L-779450: Oc1cc(-c2nc(-c3ccccc3)[nH]c2-c2ccncc2)ccc1Cl at 1000 nM
bortezomib: CC(C)C[C@H](NC(=O)[C@H](Cc1ccccc1)NC(=O)c1cnccn1)B(O)O at 5 nM
vincristine: CC[C@]1(O)C[C@H]2CN(CCc3c([nH]c4ccccc34)[C@@](C(=O)OC)(c3cc4c(cc3OC)N(C=O)[C@H]3[C@@](O)(C(=O)OC)[C@H](OC(C)=O)[C@]5(CC)C=CCN6CC[C@]43[C@@H]65)C2)C1 at 0.5 nM
nutlin-3: COc1ccc(C2=N[C@@H](c3ccc(Cl)cc3)[C@@H](c3ccc(Cl)cc3)N2C(=O)N2CCNC(=O)C2)c(OC(C)C)c1 at 500 nM
etoposide: COc1cc([C@@H]2c3cc4c(cc3[C@@H](O[C@@H]3O[C@@H]5CO[C@@H](C)O[C@H]5[C@H](O)[C@H]3O)[C@H]3COC(=O)[C@H]23)OCO4)cc(OC)c1O at 100 nM
GW9662: O=C(Nc1ccccc1)c1cc([N+](=O)[O-])ccc1Cl at 10000 nM
PF-04217903: OCCn1cc(-c2cnc3nnn(Cc4ccc5ncccc5c4)c3n2)cn1 at 5000 nM
docetaxel: CC(=O)O[C@@]12CO[C@@H]1C[C@H](O)[C@@]1(C)C(=O)[C@H](O)C3=C(C)[C@@H](OC(=O)[C@H](O)[C@@H](NC(=O)OC(C)(C)C)c4ccccc4)C[C@@](O)([C@@H](OC(=O)c4ccccc4)[C@H]21)C3(C)C at 0.5 nM
TCS401: O=C(O)C(=O)Nc1sc2c(c1C(=O)O)CCNC2 at 8330 nM
PF-562271: CN(c1ncccc1CNc1nc(Nc2ccc3c(c2)CC(=O)N3)ncc1C(F)(F)F)S(C)(=O)=O at 400 nM
IMD-0354: O=C(Nc1cc(C(F)(F)F)cc(C(F)(F)F)c1)c1cc(Cl)ccc1O at 80 nM
vorinostat: O=C(CCCCCCC(=O)Nc1ccccc1)NO at 400 nM
tozasertib: Cc1cc(Nc2cc(N3CCN(C)CC3)nc(Sc3ccc(NC(=O)C4CC4)cc3)n2)n[nH]1 at 30 nM
SU6656: CN(C)S(=O)(=O)c1ccc2c(c1)/C(=C/c1cc3c([nH]1)CCCC3)C(=O)N2 at 2000 nM
MK-2206: NC1(c2ccc(-c3nc4ccn5c(=O)[nH]nc5c4cc3-c3ccccc3)cc2)CCC1 at 2000 nM
BMS-536924: Cc1cc(N2CCOCC2)cc2[nH]c(-c3c(NC[C@@H](O)c4cccc(Cl)c4)cc[nH]c3=O)nc12 at 1000 nM
CP-690550: C[C@@H]1CCN(C(=O)CC#N)C[C@@H]1N(C)c1ncnc2[nH]ccc12 at 5000 nM
XAV939: Oc1nc(-c2ccc(C(F)(F)F)cc2)nc2c1CSCC2 at 10000 nM

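Human melanoma cells were exposed to a pair of drugs for 72 h in 1,536-well plates and read by automated microscopy after fixing and staining. Values are the share of nuclei positive for cleaved PARP as a percentage of the same share in the DMSO control: 100 is the control level, higher means more apoptosis. Every drug was used at one fixed concentration, the higher of two screened. No replicate spread is given; individual values may be noisy. Basal and induced levels differ widely between cell lines.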
This is part of the screen, not chosen by result.

Second drug	IPC-298
PF-04217903	41.2
SU6656	165
CP-690550	208
bortezomib	489
Src-I1	590
FH535	181
PF-562271	121
YM155	296
IMD-0354	95.8
XAV939	30.6
nilutamide	118
NVP-BEZ235	170
CHIR-265	248
MK-2206	117
CX-4945	130
tozasertib	113
L-779450	28.6
nutlin-3	95.0
everolimus	95.3
RKI-983	40.0
docetaxel	278
vincristine	44.1
TCS401	48.5
dasatinib	121
perifosine	173
vorinostat	81.6
GW9662	192
BI-78D3	142
etoposide	303
GW441756	63.0
cisplatin	69.0
ruxolitinib	79.5
BMS-536924	151
BI-D1870	149

Some entries from above, unchanged:

Second drug	IPC-298
RKI-983	40.0
GW441756	63.0
CX-4945	130
FH535	181